Experimental data as given in publication PMC10465472.
No constants are given. Whether binding was seen depends on the method and setting. Binding seen in cells or lysates may run through a third protein. These calls come from enrichment with a bait or labelling near it, and not all partners need be listed.

Protein sequences, listed by entry. Tags and fused reporters are not part of them. Lines headed by an entry give the natural chain unless they say otherwise; changes in a name come on top. Residues count along the entry.
UniProt P58397: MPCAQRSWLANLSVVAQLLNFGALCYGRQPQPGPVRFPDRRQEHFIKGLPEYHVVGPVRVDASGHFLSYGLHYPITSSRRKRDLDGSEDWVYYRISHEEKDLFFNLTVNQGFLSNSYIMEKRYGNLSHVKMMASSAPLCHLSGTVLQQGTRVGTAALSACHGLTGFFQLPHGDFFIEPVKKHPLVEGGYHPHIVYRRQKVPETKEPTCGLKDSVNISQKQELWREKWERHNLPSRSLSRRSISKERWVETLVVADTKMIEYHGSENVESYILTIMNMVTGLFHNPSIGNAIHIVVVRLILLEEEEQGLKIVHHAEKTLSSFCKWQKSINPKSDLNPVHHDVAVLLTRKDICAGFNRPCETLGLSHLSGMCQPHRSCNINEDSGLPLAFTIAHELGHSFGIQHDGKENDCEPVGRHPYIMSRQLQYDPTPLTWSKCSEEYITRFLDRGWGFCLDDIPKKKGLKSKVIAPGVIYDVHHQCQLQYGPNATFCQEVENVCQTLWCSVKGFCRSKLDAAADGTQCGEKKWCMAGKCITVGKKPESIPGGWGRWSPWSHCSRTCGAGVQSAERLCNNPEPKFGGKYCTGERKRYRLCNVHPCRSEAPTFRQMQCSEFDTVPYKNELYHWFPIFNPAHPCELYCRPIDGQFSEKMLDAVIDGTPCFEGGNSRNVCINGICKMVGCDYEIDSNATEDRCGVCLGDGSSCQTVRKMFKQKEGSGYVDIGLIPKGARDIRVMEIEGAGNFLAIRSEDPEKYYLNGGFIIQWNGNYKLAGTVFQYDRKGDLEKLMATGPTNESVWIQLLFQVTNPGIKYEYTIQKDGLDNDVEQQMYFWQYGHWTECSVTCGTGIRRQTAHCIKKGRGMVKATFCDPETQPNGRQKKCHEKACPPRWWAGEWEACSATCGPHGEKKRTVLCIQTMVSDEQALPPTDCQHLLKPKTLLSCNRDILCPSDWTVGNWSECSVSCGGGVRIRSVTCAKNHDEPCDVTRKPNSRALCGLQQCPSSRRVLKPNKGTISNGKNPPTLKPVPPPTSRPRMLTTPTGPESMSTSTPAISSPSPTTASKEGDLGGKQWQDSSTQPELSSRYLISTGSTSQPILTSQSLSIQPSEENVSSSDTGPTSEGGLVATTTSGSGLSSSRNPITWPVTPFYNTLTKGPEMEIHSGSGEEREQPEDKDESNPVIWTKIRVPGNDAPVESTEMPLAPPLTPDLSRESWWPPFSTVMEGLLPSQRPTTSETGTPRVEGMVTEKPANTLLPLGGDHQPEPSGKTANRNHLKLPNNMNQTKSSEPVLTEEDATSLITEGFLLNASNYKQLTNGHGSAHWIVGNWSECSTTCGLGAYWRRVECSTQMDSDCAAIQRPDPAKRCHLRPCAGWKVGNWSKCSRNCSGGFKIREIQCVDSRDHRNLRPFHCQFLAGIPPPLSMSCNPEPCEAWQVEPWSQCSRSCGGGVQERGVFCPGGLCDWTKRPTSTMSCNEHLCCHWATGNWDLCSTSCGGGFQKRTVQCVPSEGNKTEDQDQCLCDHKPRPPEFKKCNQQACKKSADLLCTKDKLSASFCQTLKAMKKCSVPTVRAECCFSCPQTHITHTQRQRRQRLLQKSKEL
UniProt P20908, residues 38-1605: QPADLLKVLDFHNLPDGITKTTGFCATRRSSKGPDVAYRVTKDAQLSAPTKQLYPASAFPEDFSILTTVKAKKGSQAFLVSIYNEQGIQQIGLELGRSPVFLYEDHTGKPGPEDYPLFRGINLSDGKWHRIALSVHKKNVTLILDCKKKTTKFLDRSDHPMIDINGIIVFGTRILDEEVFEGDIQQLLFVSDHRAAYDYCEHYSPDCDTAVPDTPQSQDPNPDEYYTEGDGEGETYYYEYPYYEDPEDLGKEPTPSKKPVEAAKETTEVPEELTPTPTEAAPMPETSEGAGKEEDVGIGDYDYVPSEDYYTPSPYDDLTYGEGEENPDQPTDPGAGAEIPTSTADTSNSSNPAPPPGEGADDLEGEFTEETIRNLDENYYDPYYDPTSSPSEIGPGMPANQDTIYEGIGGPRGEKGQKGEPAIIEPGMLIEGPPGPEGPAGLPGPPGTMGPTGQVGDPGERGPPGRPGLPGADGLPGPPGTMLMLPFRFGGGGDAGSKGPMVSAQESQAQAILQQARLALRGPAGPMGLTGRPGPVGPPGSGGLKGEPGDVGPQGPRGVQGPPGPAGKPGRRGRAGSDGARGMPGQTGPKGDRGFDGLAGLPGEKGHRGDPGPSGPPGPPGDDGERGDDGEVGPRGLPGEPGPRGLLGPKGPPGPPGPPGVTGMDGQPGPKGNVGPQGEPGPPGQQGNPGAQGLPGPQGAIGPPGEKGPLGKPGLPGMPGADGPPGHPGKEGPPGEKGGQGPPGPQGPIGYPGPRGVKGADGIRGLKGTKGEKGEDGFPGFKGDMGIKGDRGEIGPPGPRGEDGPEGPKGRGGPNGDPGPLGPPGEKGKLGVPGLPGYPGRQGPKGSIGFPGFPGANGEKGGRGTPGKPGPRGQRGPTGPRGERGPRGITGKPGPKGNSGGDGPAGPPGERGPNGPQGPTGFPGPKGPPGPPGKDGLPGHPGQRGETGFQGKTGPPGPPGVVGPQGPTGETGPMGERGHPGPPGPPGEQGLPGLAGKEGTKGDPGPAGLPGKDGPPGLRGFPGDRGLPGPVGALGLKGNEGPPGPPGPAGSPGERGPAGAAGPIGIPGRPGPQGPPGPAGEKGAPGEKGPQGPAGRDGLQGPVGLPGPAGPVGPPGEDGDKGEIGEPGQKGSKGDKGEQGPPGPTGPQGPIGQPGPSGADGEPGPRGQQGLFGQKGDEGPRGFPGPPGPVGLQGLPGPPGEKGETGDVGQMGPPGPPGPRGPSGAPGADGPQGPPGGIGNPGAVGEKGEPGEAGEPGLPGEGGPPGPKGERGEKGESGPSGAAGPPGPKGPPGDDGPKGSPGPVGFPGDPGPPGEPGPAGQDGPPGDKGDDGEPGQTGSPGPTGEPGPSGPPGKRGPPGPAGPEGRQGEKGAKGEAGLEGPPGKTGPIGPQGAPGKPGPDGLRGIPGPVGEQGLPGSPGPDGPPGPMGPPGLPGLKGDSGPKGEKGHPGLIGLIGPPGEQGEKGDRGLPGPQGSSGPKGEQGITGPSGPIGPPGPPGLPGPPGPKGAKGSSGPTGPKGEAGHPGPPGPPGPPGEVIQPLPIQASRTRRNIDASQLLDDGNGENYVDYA
UniProt P04004, residues 20-478: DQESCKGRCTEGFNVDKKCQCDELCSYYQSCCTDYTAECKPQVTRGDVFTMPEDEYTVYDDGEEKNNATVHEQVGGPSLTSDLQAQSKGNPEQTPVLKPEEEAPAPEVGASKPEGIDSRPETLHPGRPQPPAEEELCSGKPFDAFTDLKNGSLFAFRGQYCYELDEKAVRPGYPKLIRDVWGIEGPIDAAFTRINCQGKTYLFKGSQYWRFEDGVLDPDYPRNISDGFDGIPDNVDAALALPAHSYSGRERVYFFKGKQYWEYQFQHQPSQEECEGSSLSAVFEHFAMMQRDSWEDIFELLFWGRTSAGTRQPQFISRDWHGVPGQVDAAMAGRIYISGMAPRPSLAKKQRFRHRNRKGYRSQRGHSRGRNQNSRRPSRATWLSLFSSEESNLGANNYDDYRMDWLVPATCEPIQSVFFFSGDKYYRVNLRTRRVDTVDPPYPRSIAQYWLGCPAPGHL

Biological target: ADAMTS12 with HA label (overexpressed from recombinant plasmid pCMV-HA-C-ADAMTS12) (human) (UniProt P58397)
Test: affinity purification with mass spectrometry; co-immunoprecipitation combined with mass spectrometry from HeLa cells transfected with the ADAMTS12 recombinant plasmid, compared with a second group of cells (Venn diagram); precipitating antibody not stated

binding | Substance
binds | COL5A1 (from UniProt P20908 38-1605)
binds | VTN (from UniProt P04004 20-478)
